No constants are given. Whether binding was seen depends on the method and setting. Binding seen in cells or lysates may run through a third protein. For part of these data: Binding calls can cover weak binding; strength is not graded here. Tags and fused reporters may be left off the sequences shown.
T1: Myc-SYCE1 (mouse) (UniProt Q9D495)
T1 sequence: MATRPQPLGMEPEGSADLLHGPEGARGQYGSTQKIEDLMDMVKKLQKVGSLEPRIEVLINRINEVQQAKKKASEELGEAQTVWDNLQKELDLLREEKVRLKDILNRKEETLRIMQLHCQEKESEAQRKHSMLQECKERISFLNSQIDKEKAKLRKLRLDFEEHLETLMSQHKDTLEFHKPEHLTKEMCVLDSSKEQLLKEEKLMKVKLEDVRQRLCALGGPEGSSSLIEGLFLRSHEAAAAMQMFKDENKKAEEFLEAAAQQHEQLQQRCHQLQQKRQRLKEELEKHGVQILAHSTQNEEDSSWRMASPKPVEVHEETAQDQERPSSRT

The chains behind the UniProt entries cited, without tags or fusion partners. Where a name states a change or a piece, a line headed by the entry shows the natural chain unless it says otherwise.
UniProt Q9CTN5: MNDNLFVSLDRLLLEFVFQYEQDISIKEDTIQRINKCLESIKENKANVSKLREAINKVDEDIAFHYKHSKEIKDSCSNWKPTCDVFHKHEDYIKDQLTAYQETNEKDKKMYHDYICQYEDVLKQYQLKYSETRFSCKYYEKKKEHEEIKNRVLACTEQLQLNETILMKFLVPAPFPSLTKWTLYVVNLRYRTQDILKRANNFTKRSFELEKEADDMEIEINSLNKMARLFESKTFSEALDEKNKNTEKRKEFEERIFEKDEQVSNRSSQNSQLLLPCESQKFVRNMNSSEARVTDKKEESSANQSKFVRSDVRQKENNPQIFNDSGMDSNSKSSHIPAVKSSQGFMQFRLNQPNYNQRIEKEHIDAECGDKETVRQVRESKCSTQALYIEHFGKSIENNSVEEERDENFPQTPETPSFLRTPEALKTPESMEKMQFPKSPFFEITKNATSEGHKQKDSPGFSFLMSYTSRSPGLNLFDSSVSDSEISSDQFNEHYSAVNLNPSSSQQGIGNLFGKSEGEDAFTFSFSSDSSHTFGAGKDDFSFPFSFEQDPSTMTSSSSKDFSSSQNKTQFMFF


What follows are molecules tested against GFP-SIX6OS1 (mouse) (UniProt Q9CTN5) (assay: co-IP; HEK 293T cells transiently co-transfected; whole cell extracts cleared with protein G Sepharose; immunoprecipitation with anti-Flag, anti-EGFP or anti-Myc antibody; western blotting).

Row | binding | Molecule
1 | no binding | TEX12 (protein, UniProt Q9CR81 1-123) MMANHLVKPDSRNCKRARELEPQVSDSPQVSSLGKSESSLSEASGLFYKEEALEKDLSDMSKEINLMLSTYAKILSERAAVDASYIDEIDGLFKEANIIENFLVQKREFLKQRFTVITNTLHK
2 | no binding | Sororin (protein, UniProt Q9CPY3 1-264) MAERRTRSGGAAQRSGPRTSLTKPSKSSKRKSGSDLPNSFSEIWPRTTPAVPVRKAIVLKKIVAHAVEVPDVHTVRRSPRISFILEKENNPPLKVPTKEDLFKTCSVPGTPSSTPVLYTQNVEPDSGEAELDSRDLEMSQKVRRSYSRLQSLGCASTSTPGRRSFFGFEGPDDLPGVSPVVCSKLIETPKVPAKDLVPARTKDLVPDSTKDLVPARTLPGISPPVVKEKRKKKVPEILKSELDKWAVAMNAEFEAAEQFELLIE
3 | no binding | SYCP3 (protein, UniProt P70281 1-254) MLRGCGDSDSSPEPLSKHLKMVPGGRKHSGKSGKPPLVDQPKKAFDFEKDDKDLSGSEEDVADEKAPVIDKHGKKRSAGIIEDVGGEVQNMLEKFGADINKALLAKRKRIEMYTKASFKASNQKIEQIWKTQQEEIQKLNNEYSQQFMNVLQQWELDIQKFEEQGEKLSNLFRQQQKIFQQSRIVQSQRMFAMKQIHEQFIKSLEDVEKNNDNLFTGTQSELKKEMAMLQKKVMMETQQQEMANVRKSLQSMLF
4 | no binding | SYCP1 (protein, UniProt Q62209 1-993) MEKQKPFTLFVPPRLSSSQVSAVKPQTAGGDSNYFKTANKCTEGDFGVPFTMSSRENIDKDPAFQKLSILPMLEQVANSGSCHYQEGVNDSDFENSEPMSRLYSKLYKEAEKIKKWKVSIESELKQKENKLQENRKIIEAQRKAIQELQFENEKVSLKLEEEIQENKDLIKENNATIHWCNLLKETCARSAEKTNKYEYEREETRQVYVDLNSNIEKMILAFEELRVQAENARLEMHFKLKEDHEKIQHLEEEYQKEVNNKENQVSELLIQSAEKENKMKDLTFLLEESRDKANQLEEKTKLQDENLKELSEKKDHLTSELEDIKMSMQRSMSTQKALEEDLQIATKTISQLTEVKEAQMEELNKAKTTHSFVVTELKATTCTLEELLRTEQQRLEKNEDQLKLITVELQKKSNELEEMTKFKNNKEVELEELKNILAEDQKLLDEKKQVEKLAEELQEKEQELTFLLETREKEVHDLQEQVTVTKTSEQHYLKQVEEMKTELEKEKLKNTELTASCDMLLLENKKFVQEASDMALELKKHQEDIINCKKQEERLLKQIENLEEKEMHLRDELESVRKEFIQQGDEVKCKLDKSEENARSIECEVLKKEKQMKILESKCNNLKKQVENKSKNIEELHQENKTLKKKSSAEIKQLNAYEIKVSKLELELESTKQRFEEMTNNYQKEIENKKISEGKLLGEVEKAKATVDEAVKLQKEIDLRCQHKIAEMVALMEKHKHQYDKIVEERDSELGLYKNREQEQSSAKIALETELSNIRNELVSLKKQLEIEKEEKEKLKMAKENTAILKDKKDKKIQASLLESPEATSWKFDSKTTPSQNISRLSSSMDSGKSKDNRDNLRASAKSILPTTVTKEYTVKTPTKKSIYQRENKYIPTGGSNKKRKTAFEFDVNSDSSETADLLSLVSEEDVSNRLYDNNPPDSHLLVKTPKQTPLSLSTPASFMKFGSLKKMREDRWTTIAKIDRKRRLKEAEKLFS
5 | no binding | SYCE3 (protein, UniProt B5KM66 1-88) MADSDPGERSYDNMLKMLSDLNKDLEKLLEEMEKISVQATWMAYDMVVMRTNPTLAESMRRLEDAFLNCKEEMEKNWQELLTETKRKQ

The remaining lines, values behind:

Row | Molecule | binding
6 | SIX6OS1-Flag (from UniProt Q9CTN5) | binds
7 | Myc-SYCE1 (protein, UniProt Q9D495 1-329) MATRPQPLGMEPEGSADLLHGPEGARGQYGSTQKIEDLMDMVKKLQKVGSLEPRIEVLINRINEVQQAKKKASEELGEAQTVWDNLQKELDLLREEKVRLKDILNRKEETLRIMQLHCQEKESEAQRKHSMLQECKERISFLNSQIDKEKAKLRKLRLDFEEHLETLMSQHKDTLEFHKPEHLTKEMCVLDSSKEQLLKEEKLMKVKLEDVRQRLCALGGPEGSSSLIEGLFLRSHEAAAAMQMFKDENKKAEEFLEAAAQQHEQLQQRCHQLQQKRQRLKEELEKHGVQILAHSTQNEEDSSWRMASPKPVEVHEETAQDQERPSSRT | binds
8 | SYCE2 (protein, UniProt Q505B8 1-171) MERHGVAAPPVELKDQEPPAIVESGEHRQSENHEETPGSVAPSASCQLPGPFSSLDSSIETLKKKAQELIENINESRQKDHALMTNFRDSLKMKVSDLTEKLEERMYQVYSHHSKIIQERLQEFTQKMAKINHLEMELKQVCQTVETVYKDLCVQSEVPTCEEQNYKDGEC | no binding
9 | REC8 (protein, UniProt Q8C5S7 1-591) MFYYPNVLQRHTGCFATIWLAATRGSRLVKREYLNVNVVKTCEEILNYVLVRVQPPVAGLPRPRFSLYLSAQLQIGVIRVYFQQCQYLVEDIQHILEHLHRAQLRIRIDMEEADLPSLLLPNCLAMMETLEDAPEPFFGKMSVDPRLPSPFDIPQIRHLLEAATPEKTRKETLPEATPDPRKPDRTLATVQSPEVITLQEAEPIRMLQIEGEQDLPEISRGDLELLIAEKDDAILLEERQRGRLLRQRRASLPLDESREEPRALEGAGLVSALSPPAPAQVEGIQEALPGQVFPPEVQKMTGWEPGALLTEVTPPQELRLPAPPSTEKRLPSLQRPLPRRHRRRQLLFWDKETQISREKFEEQLQTGAHCWEYPVAQPPKRMLTSPAELFRTPTLSGWLPPELLGLWTHCAQVPQRMLRQRPQLETEETVEEERAADEEERRKTEALSEIEVLREAQEPSGPLMLSSELSLEAAEDEKSRTSLIPPEWWAWSEEGQPEPPALPMLPELPEVPMEMPPRPELSSEAVLRAVALKLQANKELDFSSLVPPLSPRKLASRVFYLLLVLSTQKILLVEQQKPYGPLLIRPGPKFP | no binding

What follows are molecules tested against T1, Myc-SYCE1 (mouse) in the same assay as above.

Row | binding | Molecule
10 | binds | GFP-SIX6OS1 (from UniProt Q9CTN5)

The molecules below were run against SIX6OS1 C-terminal half (287-574) (mouse) in the same assay as above.

Row | binding | Molecule
11 | no binding | Myc-SYCE1 (protein, UniProt Q9D495 1-329) MATRPQPLGMEPEGSADLLHGPEGARGQYGSTQKIEDLMDMVKKLQKVGSLEPRIEVLINRINEVQQAKKKASEELGEAQTVWDNLQKELDLLREEKVRLKDILNRKEETLRIMQLHCQEKESEAQRKHSMLQECKERISFLNSQIDKEKAKLRKLRLDFEEHLETLMSQHKDTLEFHKPEHLTKEMCVLDSSKEQLLKEEKLMKVKLEDVRQRLCALGGPEGSSSLIEGLFLRSHEAAAAMQMFKDENKKAEEFLEAAAQQHEQLQQRCHQLQQKRQRLKEELEKHGVQILAHSTQNEEDSSWRMASPKPVEVHEETAQDQERPSSRT

What follows are molecules tested against SIX6OS1 N-terminal half (1-286) (mouse) (UniProt Q9CTN5) in the same assay as above.

Row | binding | Molecule
12 | binds | Myc-SYCE1 (protein, UniProt Q9D495 1-329) MATRPQPLGMEPEGSADLLHGPEGARGQYGSTQKIEDLMDMVKKLQKVGSLEPRIEVLINRINEVQQAKKKASEELGEAQTVWDNLQKELDLLREEKVRLKDILNRKEETLRIMQLHCQEKESEAQRKHSMLQECKERISFLNSQIDKEKAKLRKLRLDFEEHLETLMSQHKDTLEFHKPEHLTKEMCVLDSSKEQLLKEEKLMKVKLEDVRQRLCALGGPEGSSSLIEGLFLRSHEAAAAMQMFKDENKKAEEFLEAAAQQHEQLQQRCHQLQQKRQRLKEELEKHGVQILAHSTQNEEDSSWRMASPKPVEVHEETAQDQERPSSRT

— article PMC5095591
